Data published in patent US20240025994A1.
These are yes or no findings as the source states them, for the method shown. Some entries that bind do so weakly or less than the wild type. For some assays here: Sequences can lack the tags named with a protein.

Experiments:
[1] = target: T1, LAG-3 (lymphocyte-activation gene 3) (human) (UniProt P18627); test: ELISA, coated LAG-3, whole murine antibody
T1 sequence (looked up): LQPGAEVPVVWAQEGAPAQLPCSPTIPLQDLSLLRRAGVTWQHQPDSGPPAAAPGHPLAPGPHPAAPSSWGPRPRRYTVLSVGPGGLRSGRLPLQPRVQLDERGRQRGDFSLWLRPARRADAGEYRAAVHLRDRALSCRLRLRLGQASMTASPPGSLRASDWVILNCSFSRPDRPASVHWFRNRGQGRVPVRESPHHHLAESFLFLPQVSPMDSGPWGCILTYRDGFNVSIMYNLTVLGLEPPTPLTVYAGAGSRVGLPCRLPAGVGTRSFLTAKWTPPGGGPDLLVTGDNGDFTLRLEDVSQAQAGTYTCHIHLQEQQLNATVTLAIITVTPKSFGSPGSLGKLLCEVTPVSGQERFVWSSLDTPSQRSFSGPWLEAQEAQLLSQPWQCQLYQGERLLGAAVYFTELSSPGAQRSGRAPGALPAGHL

[2] = target: T1, LAG-3 (lymphocyte-activation gene 3) (human); test: ELISA, coated LAG-3, Anti-Human Fc-HRP detection

B1: MA-2 murine anti-LAG-3 monoclonal antibody (whole antibody, murine IgG1 / Ck) (antibody, V domains shown)
VH: EVQLQQSGAELVKPGASVKLSCTASGFNIKDTYMHWVKQRPEQGLEWIGKIDPANGNTKYDPKFQGKATITADTSSNTAYLQLSRLTSEDTAVYYCARDTTVGLDYWGQGTTLTVSS
VL: DIVLTQTPAIMSASLGEKVTMSCRASSSVNYMYWYQQKSDASPKLWIYYTSNLAPGVPARFSGSGSGNSYSLTISSMEGEDAATYYCQQFTSSPSMTFGGGTKLEIKA
binding [1]: binds

B2: MA-3 murine anti-LAG-3 monoclonal antibody (whole antibody, murine IgG1 / Ck) (antibody, V domains shown)
VH: EVKLEESGPELVKPGASVKISCKASGYSFTSYYIHWVKQRPGQGLEWIGWIFPGTGNTRYNEKFKGKATLTADTSSSTVYMQLSGLTSEDSAVYFCARIGGRLTGDAMDYWGQGTSVTVSS
VL: DIVLTQSTASLAVSLGQRATISCRASESVDSYGNSFMHWYQQKPGQPPKLLIYLASNLESGVPARFSGSGSRTDFTLTIDPVEADDAATYYCQQNNEDPWTFGGGTKLEIKA
binding [1]: binds

B3: MA-4 murine anti-LAG-3 monoclonal antibody (whole antibody, murine IgG1 / Ck) (antibody, V domains shown)
VH: QVKLEESGPGLVQPSQSLSITCTVSAFSLTTYAVHWVRQSPGKGLEWLGVIWSGGSTDYNTAFISRLNITKDNSKSQVFFKMNSLQANDTAIYYCARLDGTFFDYWGQGTTLTVSS
VL: DIVLTQTPAIMSASLGERVTMTCTASSSVSSSYLHWYQQKPGSSPKLWIYSTSNLASGVPARFSGSGSGTSYSLTISSMEAEDAATYYCHQYHRSPPTFGGGTKLEIKA
binding [1]: binds

B4: HA-1 humanized anti-LAG-3 monoclonal antibody (human IgG4 / Ck) (antibody, V domains shown)
VH: QVQLVQSGAEVKKPGASVKVSCKASGYTFTDTYMHWVRQAPGQGLEWIGKIDPANGNTKYDPKFQGRATITADTSISTAYMELSRLRSDDTAVYYCARDTTVGLDYWGQGTLVTVSS
VL: DIVITQSPAFLSVTPGEKVTITCRASSSVNYMYWYQQKPDASPKLWIYYTSKLASGVPSRFSGSGSGTDYTFTISSLEAEDAATYYCQQWSSNPHTFGGGTKVEIKR
binding [2]: binds

B5: HA-2 humanized anti-LAG-3 monoclonal antibody (human IgG4 / Ck) (antibody, V domains shown)
VH: QVQLVQSGAEVKKPGASVKVSCKASGYTFTDTYMHWVRQAPGQGLEWIGKIDPANGNTKYDPKFQGRATITADTSISTAYMELSRLRSDDTAVYYCARDTTVGLDYWGQGTLVTVSS
VL: DIVITQSPAFLSVTPGEKVTITCRASSSVNYMYWYQQKPDQAPKLLIYYTSKLASGVPSRFSGSGSGTDYTFTISSLEAEDAATYYCQQWSSNPHTFGGGTKVEIKR
binding [2]: binds

B6: HA-3 humanized anti-LAG-3 monoclonal antibody (human IgG4 / Ck) (antibody, V domains shown)
VH: QVQLVQSGAEVKKPGASVKVSCKASGYNITDTYMHWVRQAPGQGLEWIGKIDPANGNTKYDPKFQGRATITADTSISTAYMELSRLRSDDTAVYYCARDTTVGLDYWGQGTLVTVSS
VL: DIVITQSPAFLSVTPGEKVTITCRASSSVNYMYWYQQKPDQAPKLLIYYTSKLASGVPSRFSGSGSGTDYTFTISSLEAEDAATYYCQQWSSNPHTFGGGTKVEIKR
binding [2]: binds

B7: HA-4 humanized anti-LAG-3 monoclonal antibody (human IgG4 / Ck) (antibody, V domains shown)
VH: QVQLVQSGAEVKKPGASVKVSCKASGYNITDTYMHWVRQAPGQGLEWIGKIDPANGNTKYDPKFQGRATITADTSISTAYMELSRLRSDDTAVYYCARDTTVGLDYWGQGTLVTVSS
VL: DIVITQSPAFLSVTPGEKVTITCRASSSVNYMYWYQQKPDASPKLWIYYTSKLASGVPSRFSGSGSGTDYTFTISSLEAEDAATYYCQQWSSNPHTFGGGTKVEIKR
binding [2]: binds

B8: HA-5 humanized anti-LAG-3 monoclonal antibody (human IgG4 / Ck) (antibody, V domains shown)
VH: QVQLVQSGAEVKKPGASVKVSCKASGYNIKDTYMHWVKQAPGQGLEWIGKIDPANGNTKYDPKFQGKATITADTSISTAYMELSRLRSDDTAVYYCARDTTVGLDYWGQGTLVTVSS
VL: DIVITQSPAFLSVTPGEKVTITCRASSSVNYMYWYQQKPDASPKLWIYYTSKLASGVPARFSGSGSGTSYTFTISSLEAEDAATYYCQQWSSNPHTFGGGTKVEIKR
binding [2]: binds
